Common to all, as to test: EMSA
(Mobility shift assays separate free from complexed probe on a gel.)

Protein sequences, listed by entry. Tags and fused reporters are not part of them. Lines headed by an entry give the natural chain unless they say otherwise; changes in a name come on top. Residues count along the entry.
UniProt P48432: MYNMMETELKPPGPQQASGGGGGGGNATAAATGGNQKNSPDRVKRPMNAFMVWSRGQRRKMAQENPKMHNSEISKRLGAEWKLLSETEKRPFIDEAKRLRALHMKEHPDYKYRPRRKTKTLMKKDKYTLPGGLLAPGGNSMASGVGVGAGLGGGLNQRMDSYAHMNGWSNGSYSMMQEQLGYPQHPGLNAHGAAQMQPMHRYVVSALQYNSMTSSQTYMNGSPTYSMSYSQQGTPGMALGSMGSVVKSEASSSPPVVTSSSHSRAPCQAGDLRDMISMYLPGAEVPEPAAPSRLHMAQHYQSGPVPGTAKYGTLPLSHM
UniProt P63015, 190-289: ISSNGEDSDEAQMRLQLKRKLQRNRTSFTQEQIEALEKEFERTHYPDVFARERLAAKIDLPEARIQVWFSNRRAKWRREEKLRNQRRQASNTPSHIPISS

One data set deals with Sox2 (Mus musculus (B6)) (UniProt P48432). Conditions: EMSA: 20 ng GST-fusion protein, 20 mM HEPES pH 7.8, 45 mM KCl, 10 mM NaCl, 1 mM EDTA, 1 mM DTT, 10% glycerol, 0.2 ug/uL BSA, 0.1% NP-40, 50 ng poly-dIdC; recombinant protein; residues 1-319; protein details: GST (N-terminal, pGEX-6P-1); label: 32P.
Data set [1] deals with Pax6 DNA-binding domain (BD-Pax6) (Mus musculus (B6)) (UniProt P63015). Conditions: EMSA: 20 ng GST-fusion protein, 20 mM HEPES pH 7.8, 45 mM KCl, 10 mM NaCl, 1 mM EDTA, 1 mM DTT, 10% glycerol, 0.2 ug/uL BSA, 0.1% NP-40, 50 ng poly-dIdC; recombinant protein; protein details: GST (N-terminal, pGEX-6P-1); label: 32P.
The target of data set [2] is T1, Brn2 DNA-binding domain (BD-Brn2) (Mus musculus (B6)) (UniProt P31360).
T1 sequence (looked up, limits assumed): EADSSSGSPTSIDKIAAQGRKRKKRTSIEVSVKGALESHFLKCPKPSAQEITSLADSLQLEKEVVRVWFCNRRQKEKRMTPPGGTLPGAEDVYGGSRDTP
The settings on record: EMSA: 20 ng GST-fusion protein, 20 mM HEPES pH 7.8, 45 mM KCl, 10 mM NaCl, 1 mM EDTA, 1 mM DTT, 10% glycerol, 0.2 ug/uL BSA, 0.1% NP-40, 50 ng poly-dIdC; recombinant protein; protein details: GST (N-terminal, pGEX-6P-1); label: 32P.

We go through two sequences from paper PMC3713010.

For at least one entry, the source does not settle the construct or the ends of the probe. For some of these results: At least one verdict was read from the data and is not stated in words by the source. For some of these results: Whether high values mean tight binding is not given here for every scale. For some of these results: Tags and fusion partners may be left off the protein sequences shown.

As to “GGGAAATATTCATTGTTGTTGCTCACCTACCATGGA (double strand) [Sox2-Pax6 consensus probe]”, the binding result in the data set with Sox2 (Mus musculus (B6)) is “binds”. Moreover, the binding signal (fold of positive control) in data set [1] was 1.

Regarding “GGGTAGTGTGGACAAAAGGCAATAATTAGCATGAGAATC (double strand) [Sox2-Brn2 consensus probe]”, in data set [2], the binding signal (fold of positive control) was found to be 1. In addition, the binding result with Sox2 (Mus musculus (B6)) is reported as “binds”.
